# Source: publication PMC8898362
# Chains of the proteins cited; added tags and fusions are not shown.
# UniProt Q969H0: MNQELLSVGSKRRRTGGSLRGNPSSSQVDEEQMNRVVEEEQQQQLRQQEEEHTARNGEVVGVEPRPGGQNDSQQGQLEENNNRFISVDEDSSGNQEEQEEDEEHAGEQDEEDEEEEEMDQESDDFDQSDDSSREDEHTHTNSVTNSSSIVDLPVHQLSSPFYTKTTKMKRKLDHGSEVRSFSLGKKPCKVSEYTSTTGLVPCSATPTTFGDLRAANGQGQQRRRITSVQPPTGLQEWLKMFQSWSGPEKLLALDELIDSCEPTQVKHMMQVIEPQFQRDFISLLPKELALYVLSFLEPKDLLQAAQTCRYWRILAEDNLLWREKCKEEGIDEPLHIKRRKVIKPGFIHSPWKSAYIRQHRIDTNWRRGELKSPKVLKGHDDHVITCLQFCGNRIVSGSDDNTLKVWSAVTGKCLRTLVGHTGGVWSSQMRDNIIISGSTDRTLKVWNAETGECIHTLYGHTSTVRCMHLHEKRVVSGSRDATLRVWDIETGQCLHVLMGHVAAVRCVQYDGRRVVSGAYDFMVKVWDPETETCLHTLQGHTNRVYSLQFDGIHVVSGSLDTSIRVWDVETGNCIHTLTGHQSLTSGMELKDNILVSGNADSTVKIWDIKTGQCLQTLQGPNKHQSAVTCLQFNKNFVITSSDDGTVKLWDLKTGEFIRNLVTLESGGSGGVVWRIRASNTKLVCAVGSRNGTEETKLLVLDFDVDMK
# No constants are given. Whether binding was seen depends on the method and setting. Binding seen in cells or lysates may run through a third protein. Some binding calls cover weakened binding; strength is not graded here. Sequences can lack the tags named with a protein.
# Biological target: T1, VDAC3 (voltage-dependent anion channels 3) (human (endogenous in HGC-27)) (UniProt Q9Y277)
# T1 sequence: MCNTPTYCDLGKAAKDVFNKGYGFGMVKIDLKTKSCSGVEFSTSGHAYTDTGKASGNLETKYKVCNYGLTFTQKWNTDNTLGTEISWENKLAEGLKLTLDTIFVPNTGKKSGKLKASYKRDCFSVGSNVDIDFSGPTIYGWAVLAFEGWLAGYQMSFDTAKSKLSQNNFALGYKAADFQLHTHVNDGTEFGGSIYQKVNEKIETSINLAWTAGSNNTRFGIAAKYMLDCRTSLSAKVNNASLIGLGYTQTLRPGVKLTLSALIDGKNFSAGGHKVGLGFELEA
# Assay: co-IP; HGC-27 cells; immunoprecipitates of VDAC3 and input (20%) separated by SDS-PAGE, western blotting for FBXW7 and VDAC3; Co-IP kit (Abison Biotechnology)
substance,measurement,value
FBXW7 (from UniProt Q969H0 1-707),binding,binds
